Laboratory results published in patent US20040054158A1.
No constants are given. Whether binding was seen depends on the method and setting. Tags and fused reporters may be left off the sequences shown.

Legend:
[1] = molecular target: CTLA-4 expressed on cells (COS transfectants); test: flow cytometry on transfected cells
[2] = molecular target: CD28 expressed on cells (COS transfectants); test: flow cytometry on transfected cells

B1: murine GL50-1Ig fusion protein (Fc fusion)
chain: ETEVGAMVGSNVVLSCIDPHRRHFNLSGLYVYWQIENPEVSVTYYLPYKSPGINVDSSYKNRGHLSLDSMKQGNFSLYLKNVTPQDTQEFTCRVFMNTATELVKILEEVVRLRVAANFSTPVISTSDSSNPGQERTYTCMSKNGYPEPNLYWINTTDNSLIDTALQNNTVYLNKLGLYDVISTLRLPWTSRGDVLCCVENVALHQNITSISQAESFTGNNTKNPQETHNNEEPRGPTIKPCPPCKCPAPNLEGGPSVFIFPPKIKDVLMISLSPIVTCVVVDVSEDDPDVQISWFVNNVEVHTAQTQTHREDYNSTLRVVSALPIQHQDWMSGKAFACAVNNKDLPAPIERTISKPKGSVRAPQVYVLPPPEEEMTKKQVTLTCMVTDFMPEDIYVEWTNNGKTELNYKNTEPVLDSDGSYFMYSKLRVEKKNWVERNSYSCSVVHEGLHNHHTTKSFSRTPGK
binding [1]: no binding | binding [2]: no binding
